# Patent US20220098323A1 (US Dept. of Health and Human Services, published 2022)
# These are yes or no findings as the source states them, for the method shown. Some binding calls cover weakened binding; strength is not graded here.
# T1: cell-surface GPC1 on GPC1-expressing tumor cells (2B9 KLM, H8, T3M4) (UniProt P35052)
# T1 sequence (looked up): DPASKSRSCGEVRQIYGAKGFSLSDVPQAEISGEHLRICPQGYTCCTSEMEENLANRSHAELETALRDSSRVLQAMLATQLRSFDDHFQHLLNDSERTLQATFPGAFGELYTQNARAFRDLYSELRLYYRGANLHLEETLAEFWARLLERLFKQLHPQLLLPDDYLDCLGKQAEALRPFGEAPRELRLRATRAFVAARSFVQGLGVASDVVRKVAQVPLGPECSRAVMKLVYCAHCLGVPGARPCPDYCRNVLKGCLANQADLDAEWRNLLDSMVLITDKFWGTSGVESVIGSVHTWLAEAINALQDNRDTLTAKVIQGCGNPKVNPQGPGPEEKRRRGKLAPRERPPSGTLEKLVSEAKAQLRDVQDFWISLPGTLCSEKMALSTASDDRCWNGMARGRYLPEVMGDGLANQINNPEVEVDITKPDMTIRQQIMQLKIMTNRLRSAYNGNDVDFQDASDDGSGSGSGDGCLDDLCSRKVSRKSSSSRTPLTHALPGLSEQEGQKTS
# B1: camel single-domain antibody D4 (VHH)
# VHH: QVQLVESGGGLVQPGGSLRLSCVASGYSYSIGYMAWFRQAPGKERAWVASRYTGDGGAVFDDAVKGRFTTSQESAGNTFDLQMDSLKPEDTAMYYCAAKGPGFGRWEYWGRGTQVTVSS
# notes: also called D4 antibody; VHH antibody D4
# Target: T1, cell-surface GPC1 on GPC1-expressing tumor cells (2B9 KLM, H8, T3M4)
# Assay: flow cytometry on cells, D4 at 5 ug/ml
binder,measurement,value
B1,binding,binds
